Source: the odorant receptor screen of Mainland et al. (2015)
Several values for one entry are separate records, joined by “and”; a condition that tells them apart may be missing. Equal values may be shown once. The list shows a part of the results. Single wells; the ratio to wells without odorant was worked out here, and repeats agree poorly.

Experiments:
Test in all cases: odorant receptor activation (CRE luciferase / Renilla) (fold of no-odor wells); higher = more activation
Details in all cases: 100 µM
OR4F15 clone 1074 = system: OR4F15 clone 1074
OR4F15 clone 1434 = system: OR4F15 clone 1434
OR4F16 clone 1060 = system: OR4F16 clone 1060
OR4F17 clone 1161 = system: OR4F17 clone 1161
OR4F21 clone 1580 = system: OR4F21 clone 1580
OR4F4 clone 1556 = system: OR4F4 clone 1556
OR4F5 clone 1557 = system: OR4F5 clone 1557
OR4F6 clone 1058 = system: OR4F6 clone 1058
OR4F6 clone 1537 = system: OR4F6 clone 1537
OR4K1 R89H clone 1269 = system: OR4K1 R89H clone 1269

`CCC(C)=O` [2-butanone] was tested, and the odorant receptor activation (OR4F15 clone 1074) was 2.86, the odorant receptor activation (OR4F15 clone 1434) was 1.49 and the odorant receptor activation (OR4F16 clone 1060) was 2.82. The odorant receptor activation (OR4F17 clone 1161) was 0.929, the odorant receptor activation (OR4F21 clone 1580) was 0.789 and the odorant receptor activation (OR4F4 clone 1556) was 1.43. The odorant receptor activation (OR4F5 clone 1557) was 1.55, the odorant receptor activation (OR4F6 clone 1058) was 3.55 and the odorant receptor activation (OR4F6 clone 1537) was 1.06. The odorant receptor activation (OR4K1 R89H clone 1269) was 1.34.
For `CCOc1cc(C=O)ccc1O` [ethyl vanillin], the odorant receptor activation (OR4F15 clone 1074) was 1.49 and 1.03, the odorant receptor activation (OR4F15 clone 1434) was 1.07 and 1.23 and the odorant receptor activation (OR4F16 clone 1060) was 0.755 and 0.861. For the same molecule, the odorant receptor activation (OR4F17 clone 1161) was 1.98 and 0.938, the odorant receptor activation (OR4F21 clone 1580) was 0.737 and the odorant receptor activation (OR4F4 clone 1556) was 0.808. For the same molecule, the odorant receptor activation (OR4F5 clone 1557) was 1.05, the odorant receptor activation (OR4F6 clone 1058) was 1.03 and 1.2 and the odorant receptor activation (OR4F6 clone 1537) was 1.16 and 1.65 and 1.28. For the same molecule, the odorant receptor activation (OR4K1 R89H clone 1269) was 1.07 and 1.05.
`CS` [methanethiol] gave an odorant receptor activation (OR4F15 clone 1074) of 0.964, an odorant receptor activation (OR4F15 clone 1434) of 0.896 and an odorant receptor activation (OR4F16 clone 1060) of 1.22. It also gave an odorant receptor activation (OR4F17 clone 1161) of 1.15, an odorant receptor activation (OR4F21 clone 1580) of 0.496 and an odorant receptor activation (OR4F4 clone 1556) of 0.993. The odorant receptor activation (OR4F5 clone 1557) was 1.12, the odorant receptor activation (OR4F6 clone 1058) was 1.12 and the odorant receptor activation (OR4F6 clone 1537) was 0.84. It also gave an odorant receptor activation (OR4K1 R89H clone 1269) of 0.753.
Work on `CCCCOC(C)=O` [butyl acetate] yielded an odorant receptor activation (OR4F15 clone 1074) of 1.01, an odorant receptor activation (OR4F15 clone 1434) of 0.196 and an odorant receptor activation (OR4F16 clone 1060) of 0.939. For the same molecule, the odorant receptor activation (OR4F17 clone 1161) was 1.19, the odorant receptor activation (OR4F21 clone 1580) was 1.5 and the odorant receptor activation (OR4F4 clone 1556) was 1.03. It also gave an odorant receptor activation (OR4F5 clone 1557) of 0.849, an odorant receptor activation (OR4F6 clone 1058) of 1.27 and an odorant receptor activation (OR4F6 clone 1537) of 0.944. For the same molecule, the odorant receptor activation (OR4K1 R89H clone 1269) was 0.995.
